Test results as given in the supplement of paper PMC7661543.
Differences between knockout arms are mostly noise.

System: BT-20
Assay: relative cell number vs DMSO control (72 h) (% of DMSO); higher = less growth inhibition (more cells)
Method: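 QMAP-Seq: a pool of 5 breast cancer cell lines (ZR-75-1, SKBR3, HCC-38, MDA-MB-231, BT-20), each carrying 12 doxycycline-inducible Cas9 sgRNA perturbations (11 knockouts plus non-targeting sgNT), was treated with compounds for 72 h at four 10-fold doses (10 nM-10 uM or 1 nM-1 uM range). Barcodes were amplified and sequenced, and cell number was interpolated from 293T spike-in standard curves. The result is expressed as % of the median of DMSO wells. Two biological replicates.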

CCn1c(=O)c2c(nc(/C=C/c3ccc(OC)c(OC)c3)n2C)n(CC)c1=O [Istradefylline]
Conditions	relative cell number
sgRNA knockout: sgATF3, 10 nM	102
sgRNA knockout: sgATF3, 100 nM	92
sgRNA knockout: sgATF3, 1000 nM	107
sgRNA knockout: sgATF3, 10000 nM	95.4
sgRNA knockout: sgATF4, 10 nM	94.4
sgRNA knockout: sgATF4, 100 nM	96.55
sgRNA knockout: sgATF4, 1000 nM	91.9
sgRNA knockout: sgATF4, 10000 nM	112
sgRNA knockout: sgATF6, 10 nM	106
sgRNA knockout: sgATF6, 100 nM	86.7
sgRNA knockout: sgATF6, 1000 nM	109
sgRNA knockout: sgATF6, 10000 nM	103
sgRNA knockout: sgATG7, 10 nM	97.7
sgRNA knockout: sgATG7, 100 nM	98.5
sgRNA knockout: sgATG7, 1000 nM	92.3
sgRNA knockout: sgATG7, 10000 nM	108
sgRNA knockout: sgERN1, 10 nM	95.3
sgRNA knockout: sgERN1, 100 nM	90.5
sgRNA knockout: sgERN1, 1000 nM	87
sgRNA knockout: sgERN1, 10000 nM	83.7
sgRNA knockout: sgHSF1, 10 nM	88.5
sgRNA knockout: sgHSF1, 100 nM	106
sgRNA knockout: sgHSF1, 1000 nM	94.2
sgRNA knockout: sgHSF1, 10000 nM	112
sgRNA knockout: sgHSF2, 10 nM	102
sgRNA knockout: sgHSF2, 100 nM	110
sgRNA knockout: sgHSF2, 1000 nM	78.5
sgRNA knockout: sgHSF2, 10000 nM	102
sgRNA knockout: sgKEAP1, 10 nM	95.2
sgRNA knockout: sgKEAP1, 100 nM	95.1
sgRNA knockout: sgKEAP1, 1000 nM	90.1
sgRNA knockout: sgKEAP1, 10000 nM	99.8
sgRNA knockout: sgNFE2L2, 10 nM	111
sgRNA knockout: sgNFE2L2, 100 nM	118
sgRNA knockout: sgNFE2L2, 1000 nM	115
sgRNA knockout: sgNFE2L2, 10000 nM	113
sgRNA knockout: sgSLC35F2, 10 nM	97.7
sgRNA knockout: sgSLC35F2, 100 nM	102
sgRNA knockout: sgSLC35F2, 1000 nM	87.4
sgRNA knockout: sgSLC35F2, 10000 nM	108
sgRNA knockout: sgXBP1, 10 nM	100
sgRNA knockout: sgXBP1, 100 nM	101
sgRNA knockout: sgXBP1, 1000 nM	94.2
sgRNA knockout: sgXBP1, 10000 nM	112

Nc1nc(Cl)nc2c1ncn2[C@@H]1O[C@H](CO)[C@@H](O)[C@@H]1F [Clofarabine]
Conditions	relative cell number
sgRNA knockout: sgATF3, 10 nM	76.7
sgRNA knockout: sgATF3, 100 nM	71.3
sgRNA knockout: sgATF3, 1000 nM	30.3
sgRNA knockout: sgATF3, 10000 nM	25.5
sgRNA knockout: sgATF4, 10 nM	106
sgRNA knockout: sgATF4, 100 nM	76.6
sgRNA knockout: sgATF4, 1000 nM	29.7
sgRNA knockout: sgATF4, 10000 nM	26.1
sgRNA knockout: sgATF6, 10 nM	91.9
sgRNA knockout: sgATF6, 100 nM	77.5
sgRNA knockout: sgATF6, 1000 nM	22.1
sgRNA knockout: sgATF6, 10000 nM	21.8
sgRNA knockout: sgATG7, 10 nM	94.5
sgRNA knockout: sgATG7, 100 nM	82.9
sgRNA knockout: sgATG7, 1000 nM	34.1
sgRNA knockout: sgATG7, 10000 nM	27.1
sgRNA knockout: sgERN1, 10 nM	91.3
sgRNA knockout: sgERN1, 100 nM	85.2
sgRNA knockout: sgERN1, 1000 nM	30.6
sgRNA knockout: sgERN1, 10000 nM	23.6
sgRNA knockout: sgHSF1, 10 nM	104
sgRNA knockout: sgHSF1, 100 nM	77.4
sgRNA knockout: sgHSF1, 1000 nM	28.5
sgRNA knockout: sgHSF1, 10000 nM	23.2
sgRNA knockout: sgHSF2, 10 nM	75.4
sgRNA knockout: sgHSF2, 100 nM	73.9
sgRNA knockout: sgHSF2, 1000 nM	33.5
sgRNA knockout: sgHSF2, 10000 nM	25.9
sgRNA knockout: sgKEAP1, 10 nM	92.54
sgRNA knockout: sgKEAP1, 100 nM	76.1
sgRNA knockout: sgKEAP1, 1000 nM	34.2
sgRNA knockout: sgKEAP1, 10000 nM	25
sgRNA knockout: sgNFE2L2, 10 nM	112
sgRNA knockout: sgNFE2L2, 100 nM	73
sgRNA knockout: sgNFE2L2, 1000 nM	24.8
sgRNA knockout: sgNFE2L2, 10000 nM	19.3
sgRNA knockout: sgSLC35F2, 10 nM	103
sgRNA knockout: sgSLC35F2, 100 nM	83.2
sgRNA knockout: sgSLC35F2, 1000 nM	27.67
sgRNA knockout: sgSLC35F2, 10000 nM	27.4
sgRNA knockout: sgXBP1, 10 nM	99.1
sgRNA knockout: sgXBP1, 100 nM	80.4
sgRNA knockout: sgXBP1, 1000 nM	27.3
sgRNA knockout: sgXBP1, 10000 nM	22.7

CC(=O)Nc1nc(C)c(-c2ccc(Cl)c(S(=O)(=O)NCCO)c2)s1 [PIK93]
Conditions	relative cell number
sgRNA knockout: sgATF3, 10 nM	96.9
sgRNA knockout: sgATF3, 100 nM	117
sgRNA knockout: sgATF3, 1000 nM	82.5
sgRNA knockout: sgATF3, 10000 nM	65
sgRNA knockout: sgATF4, 10 nM	134
sgRNA knockout: sgATF4, 100 nM	98.8
sgRNA knockout: sgATF4, 1000 nM	79.7
sgRNA knockout: sgATF4, 10000 nM	66.5
sgRNA knockout: sgATF6, 10 nM	99.9
sgRNA knockout: sgATF6, 100 nM	73.9
sgRNA knockout: sgATF6, 1000 nM	93.4
sgRNA knockout: sgATF6, 10000 nM	69.2
sgRNA knockout: sgATG7, 10 nM	105
sgRNA knockout: sgATG7, 100 nM	108
sgRNA knockout: sgATG7, 1000 nM	89.5
sgRNA knockout: sgATG7, 10000 nM	74.8
sgRNA knockout: sgERN1, 10 nM	109
sgRNA knockout: sgERN1, 100 nM	101
sgRNA knockout: sgERN1, 1000 nM	92
sgRNA knockout: sgERN1, 10000 nM	76.3
sgRNA knockout: sgHSF1, 10 nM	115
sgRNA knockout: sgHSF1, 100 nM	109
sgRNA knockout: sgHSF1, 1000 nM	90
sgRNA knockout: sgHSF1, 10000 nM	65.4
sgRNA knockout: sgHSF2, 10 nM	104
sgRNA knockout: sgHSF2, 100 nM	116
sgRNA knockout: sgHSF2, 1000 nM	84.34
sgRNA knockout: sgHSF2, 10000 nM	63.629
sgRNA knockout: sgKEAP1, 10 nM	102
sgRNA knockout: sgKEAP1, 100 nM	107
sgRNA knockout: sgKEAP1, 1000 nM	86.1
sgRNA knockout: sgKEAP1, 10000 nM	71.6
sgRNA knockout: sgNFE2L2, 10 nM	99.2
sgRNA knockout: sgNFE2L2, 100 nM	104
sgRNA knockout: sgNFE2L2, 1000 nM	94.8
sgRNA knockout: sgNFE2L2, 10000 nM	62.7
sgRNA knockout: sgSLC35F2, 10 nM	100
sgRNA knockout: sgSLC35F2, 100 nM	107
sgRNA knockout: sgSLC35F2, 1000 nM	95.8
sgRNA knockout: sgSLC35F2, 10000 nM	72.5
sgRNA knockout: sgXBP1, 10 nM	112
sgRNA knockout: sgXBP1, 100 nM	95.2
sgRNA knockout: sgXBP1, 1000 nM	109.8
sgRNA knockout: sgXBP1, 10000 nM	65.4
